Reference: patent US10556865B2, “Synergistic herbicidal composition containing certain pyridine or pyrimidine carboxylic acids and certain cereal and rice herbicides” (Dow AgroSciences, LLC, priority 2007, dated 2020)
“And” between values parts separate entries of the source, which are not always exact repeats. Identical values can stand only once. The name of at least one read-out is uncertain.

Tests used:
Test in all cases: Postemergence herbicidal activity of mixtures in cereal crops (greenhouse, visual injury)
Assay type in all cases: in vivo
[1] = test system: bird's-eye speedwell (Veronica persica L; VERPE)
Experimental: (§1) The plants were grown for 7-36 days in a greenhouse with an approximate 14 hour photoperiod which was maintained at about 18° C. during the day and 17° C. during the night. Nutrients and water were added on a regular basis and supplemental lighting was provided with overhead metal halide 1000-Watt lamps as necessary. The plants were employed for testing when they reached the second or third true leaf stage.
(§2) Treatments consisted of compound (as listed in Tables 1 through 64) and a second cereal herbicide alone and in combination. […] Control plants were sprayed in the same manner with the solvent blank.
(§3) The treated plants and control plants were placed in a greenhouse as described above and watered by sub-irrigation to prevent wash-off of the test compounds. After 20-22 days, the condition of the test plants as compared with that of the control plants was determined visually and scored on a scale of 0 to 100 percent where 0 corresponds to no injury and 100 corresponds to complete kill.
(§4) The following equation was used to calculate the expected activity of mixtures containing two active ingredients, A and B: Expected=A+B−(A×B/100)

[2] = test system: scented mayweed (Matricaria chamomila L; MATCH)
Experimental: as §1, §2, §3, §4

[3] = test system: wild pansy (Viola tricolor L; VIOTR)
Experimental: as §1, §2, §3, §4

[4] = test system: chickweed (Stellaria media L; STEME)
Experimental: (§5) Seeds of the desired test plant species were planted in Sun Gro MetroMix® 306 planting mixture, which typically has a pH of 6.0 to 6.8 and an organic matter content of about 30 percent, in plastic pots with a surface area of 103.2 square centimeters (cm^2). When required to ensure good germination and healthy plants, a fungicide treatment and/or other chemical or physical treatment was applied. The plants were grown for 7-36 days in a greenhouse with an approximate 14 hour photoperiod which was maintained at about 18° C. during the day and 17° C. during the night. Nutrients and water were added on a regular basis and supplemental lighting was provided with overhead metal halide 1000-Watt lamps as necessary. The plants were employed for testing when they reached the second or third true leaf stage.
(§6) Treatments consisted of compound (as listed in Tables 1 through 64) and a second cereal herbicide alone and in combination. Weighed amounts of esters (methyl) or salts (TEA [triethylammonium], K [potassium]) of 4-amino-3-chloro -6-(4-chloro-2-fluoro-3-methoxyphenyl)pyridine-2-carboxylic acid (Compound A) or of 6-amino-5-chloro-2-(4-chloro-2-fluoro-3-methoxyphenyl)pyrimidine-4-carboxylic acid (Compound B), were placed in 25 milliliter (mL) glass vials and dissolved in a volume of 97:3 v/v acetone/DMSO to obtain 4.5 milligrams (mg) active ingredient (ai)/mL stock solutions. […] The concentrated stock solutions were diluted to 1.5 mg ai/mL with the addition of 2 volumes of an aqueous mixture containing acetone, water, isopropyl alcohol, DMSO, Agri-dex crop oil concentrate, and Triton® X-77 surfactant in a 64.7:26.0:6.7:2.0:0.7:0.01 v/v ratio. A dilution solution was prepared by mixing 1 volume of 97:3 v/v acetone/DMSO and 2 volumes of an aqueous mixture containing acetone, water, isopropyl alcohol, DMSO, Agri-dex crop oil concentrate, and Triton® X-77 surfactant in a 64.7:26.0:6.7:2.0:0.7:0.01 v/v ratio. Compound requirements are based upon a 12 mL application volume at a rate of 187 liters per hectare (L/ha). Spray solutions of the second cereal herbicide and experimental compound mixtures were prepared by adding the stock solutions to the appropriate amount of dilution solution to form 12 mL spray solution with active ingredients in two- and three-way combinations. Formulated compounds were applied to the plant material with an overhead Mandel track sprayer equipped with 8002E nozzles calibrated to deliver 187 L/ha over an application area of 0.503 square meters (m^2) at a spray height of 18 inches (43 cm) above average plant canopy. Control plants were sprayed in the same manner with the solvent blank.
as §3
(§7) Colby's equation was used to determine the herbicidal effects expected from the mixtures (Colby, S. R. 1967. Calculation of the synergistic and antagonistic response of herbicide combinations. Weeds 15:20-22.).
as §4

[5] = test system: black mustard (Brassica nigra L; BRSNI)
Experimental: as §5, §6, §3, §7, §4

SMILES: COC(=O)c1nc(-c2ccc(Cl)c(OC)c2F)cc(N)c1Cl [Compound A Methyl, 4-amino-3-chloro-6-(4-chloro-2-fluoro-3-methoxyphenyl)pyridine-2-carboxylic acid methyl ester]
- VERPE Ob ([1]; 17.5 g/ha): 40%
- VERPE Ob ([1]; 35 g/ha): 55%
- VERPE Ob ([1]; 70 g/ha): 80%
- MATCH Ob ([2]; 17.5 g/ha): 20%
- MATCH Ob ([2]; 35 g/ha): 85%
- MATCH Ob ([2]; 70 g/ha): 80%
- VIOTR Ob ([3]; 17.5 g/ha): 40%
- VIOTR Ob ([3]; 35 g/ha): 50%
- VIOTR Ob ([3]; 70 g/ha): 60%
- STEME Ob ([4]; 17.5 g/ha): 75%
- STEME Ob ([4]; 35 g/ha): 95%

SMILES: COc1c(Cl)ccc(-c2cc(N)c(Cl)c(C(=O)O)n2)c1F [Compound A TEA, 4-amino-3-chloro-6-(4-chloro-2-fluoro-3-methoxyphenyl)pyridine-2-carboxylic acid]
- VERPE Ob ([1]; 8.75 g/ha alone): 59%
- VERPE Ob ([1]; 17.5 g/ha alone): 69%
- VERPE Ob ([1]; 35 g/ha alone): 86%
- VERPE Ob ([1]; 70 g/ha): 60% and 80% and 88%
- VERPE Ob ([1]; 70 g/ha alone): 85%
- VERPE Ob ([1]; 140 g/ha): 85% and 60%
- MATCH Ob ([2]; 8.75 g/ha alone): 59%
- MATCH Ob ([2]; 35 g/ha): 60% and 84%
- MATCH Ob ([2]; 35 g/ha alone): 88%
- MATCH Ob ([2]; 70 g/ha): 60% and 94%
- MATCH Ob ([2]; 70 g/ha alone): 93%
- VIOTR Ob ([3]; 8.75 g/ha alone): 34%
- VIOTR Ob ([3]; 17.5 g/ha alone): 44%
- VIOTR Ob ([3]; 35 g/ha): 50% and 47%
- VIOTR Ob ([3]; 35 g/ha alone): 58%
- BRSNI Ob ([5]; 8.75 g/ha alone): 83%
- BRSNI Ob ([5]; 17.5 g/ha alone): 93%
- BRSNI Ob ([5]; 35 g/ha alone): 97%
- BRSNI Ob ([5]; 70 g/ha alone): 100%
- STEME Ob ([4]; 8.75 g/ha alone): 76%
- STEME Ob ([4]; 35 g/ha): 55% and 88%
- STEME Ob ([4]; 35 g/ha alone): 91%
- STEME Ob ([4]; 70 g/ha): 60% and 93%
